For three molecules, binding results are on record in paper PMC8505397, “Development of peptides targeting receptor binding site of the envelope glycoprotein to contain the West Nile virus infection” (Scientific Reports, 2021).

Results are given in words; binding and its absence hold for the method and conditions named. Binding can be weak; no strength is given.

The test concerns the target recombinant domain III (DIII) of the envelope (E) glycoprotein of West Nile virus (West Nile virus). The experiment in a line: ELISA; semi-quantitative phage ELISA of individual amplified, PEG/NaCl-purified phage clones with rDIII; negative controls with rDIII omitted; details in Supplementary Method S4; both purified. A general note: In an ELISA, binding on a coated surface is turned into a signal by an enzyme label.

CTNANHYFC (disulfide bond between the two cysteine residues (cyclic form on pIII)) [phage clone CC7 carrying 7-mer cyclic peptide …]: the binding result was “binds”.

As for CLAQSHPLC (disulfide bond between the two cysteine residues (cyclic form on pIII)) [phage clone CC16 carrying 7-mer cyclic peptide …], the binding result is reported as “binds”.

As for CTYENHRTC (disulfide bond between the two cysteine residues (cyclic form on pIII)) [phage clone CC12 carrying 7-mer cyclic peptide …], the binding entry is recorded as “binds”.
